Tests used:
H. halys nymphs = assay: Nymphicidal toxicity, treated filter paper in glass vial; assay type: in vivo; conditions: probit slope
Description: Toxicities of MB, some compounds of formula 1, and commercial pesticides on H. halys nymphs: The bioassays were carried out in glass vials (20 mL), following a published procedure (Nielsen, A. L., et al., J. Econ. Entomol., 101: 1439-1442 (2008)). Filter paper was cut into round shape pieces (2.4 cm diameter). 50 μL acetone solution of one derivative or commercial pesticide with different concentrations was loaded onto the filter paper evenly, and the filter paper was dried for 1 min and then put into the bottom of vial. A small piece of green bean was put on the filter paper in the vial as food source. Different stages of H. halys nymphs were introduced into the vial and capped with a cotton ball. For each stage, 30 nymphs were used for each amount. For the nymphs of the first instar, 10 nymphs were put into 1 vial. For the nymphs of the second and third instar, 5 nymphs were put into 1 vial. For the nymphs of the fourth instar, 3 nymphs were put into 1 vial. For the nymphs of the fifth instar, 2 nymphs were put into 1 vial. The mortality was assessed after 24 hr.

H. halys eggs = assay: Ovicidal toxicity, direct spray on eggs; assay type: in vivo; conditions: probit slope
Source text: Ovicidal toxicities of MB and some compounds of formula 1: The aqueous solutions of one of the compounds of formula 1 with designated concentrations with different concentrations of active ingredient (AI) were separately stored in glass spray bottles according to a published procedure (Cuthbertson 2014). The eggs (10 for H. halys and 100 for P. xylostella) were laid on filter papers in Petri dishes. Different aqueous insecticidal solutions were sprayed on the surfaces of different eggs three times (˜0.5 mL) to completely cover the treatment areas. Then the Petri dishes were covered with lids and maintained in a fume hood for 10 days. The Petri dishes were then inspected for presence of nymph/larvae development or numbers of unhatched eggs.

L. dispar larvae = assay: Larvicidal toxicity, treated filter paper in Petri dish; assay type: in vivo; conditions: probit slope
Description: Toxicities of MB and some compounds of formula 1 on L. dispar larvae: The bioassays were carried out in plastic Petri dish loaded with filter paper, following a published procedure (Nielsen 2008). 600 μL acetone solution of one derivative with different concentrations was loaded onto the filter paper (90 mm diameter) evenly, and the filter paper was dried for 2 min and then put into the bottom of Petri dish. 10 L. dispar larvae were put onto the Petri dish and covered with a lid. 30 larvae were used for each amount. The mortality was assessed after 24 hr.

S. invicta workers = assay: Fumigant toxicity in sealed glass flask; assay type: in vivo, Solenopsis invicta
Description: A 250-ml glass flask (the whole volume is 280 ml) was used to house worker ants in fumigant toxicity bioassays. Two micro-liter of acetone solution of the tested compound was applied onto a paraffin film, which was used to seal the flask with ants. The treated spot of the paraffin film faced the inside of the flask. The upper part of the flask was coated with Fluon® to prevent ants from contacting the test material. Two experiments were conducted. […] LC50 value was established using 5 dosages. Each dosage was replicated 3 times for each of 3 colonies. Each replicate consisted of 15 to 26 ants. Ants that could not stand by themselves were considered dead. Dead ants were counted after 24 h.

Row | SMILES | Slope ± SE (H. halys nymphs; 2nd stage nymphs) | Slope ± SE (H. halys eggs) | Slope ± SE (L. dispar larvae) | Slope (mean ± SE) (S. invicta workers; colony 1) | Slope (mean ± SE) (S. invicta workers; colony 2) | Slope (mean ± SE) (S. invicta workers; colony 3) | Slope ± SE (H. halys nymphs; 3rd stage nymphs) | Slope ± SE (H. halys nymphs; 4th stage nymphs) | Slope ± SE (H. halys nymphs; 5th stage nymphs)
1 | COC(=O)c1ccccc1Cl [M2CB, methyl 2-chlorobenzoate] | 5.568 ± 0.849 | 3.724 ± 0.816 | 7.291 ± 0.868 | 6.35 ± 0.71 | 4.62 ± 0.50 | 7.24 ± 0.68 | – | – | –
2 | COC(=O)c1ccccc1[N+](=O)[O-] [M2NB, methyl 2-nitrobenzoate] | – | 2.028 ± 0.389 | 1.168 ± 0.545 | – | – | – | 3.175 ± 0.615 | – | –
3 | COC(=O)c1ccccc1OC [M2MOB, methyl 2-methoxybenzoate] | 4.393 ± 0.657 | 3.724 ± 0.816 | 2.971 ± 0.487 | – | – | – | – | – | –
4 | COC(=O)c1cccc(OC)c1 [M3MOB, methyl 3-methoxybenzoate] | – | 2.327 ± 0.566 | 8.073 ± 1.126 | 6.25 ± 0.84 | 5.24 ± 0.56 | 5.03 ± 0.51 | 3.549 ± 0.478 | – | –
5 | CCCOC(=O)c1ccccc1 [nPrB, n-propyl benzoate] | – | 0.571 ± 0.206 | 2.576 ± 0.402 | – | – | – | 3.427 ± 0.614 | – | –
6 | O=C(OCc1ccccc1)c1ccccc1 [BB, benzyl benzoate] | – | 0.016 ± 0.213 | 2.858 ± 0.535 | – | – | – | – | 1.691 ± 0.485 | –
7 | C=COC(=O)c1ccccc1 [VB, vinyl benzoate] | 6.245 ± 1.155 | 2.974 ± 0.620 | 10.082 ± 1.640 | 9.46 ± 0.87 | 25.99 ± 2.39 | 16.07 ± 2.18 | – | – | –
8 | COC(=O)c1cccc(C)c1 [M3MB, methyl 3-methylbenzoate] | – | 2.128 ± 0.399 | 4.693 ± 0.540 | 7.55 ± 0.73 | 10.52 ± 1.09 | 9.72 ± 0.96 | – | 3.606 ± 0.618 | –
9 | C/C(=N\C#N)N(C)Cc1ccc(Cl)nc1 [AP, acetamiprid, reference compound] | 2.078 ± 0.325 | – | 3.150 ± 0.419 | – | – | – | 1.750 ± 0.272 | – | 3.164 ± 0.394
10 | CC(COc1ccc(Oc2ccccc2)cc1)Oc1ccccn1 (stereo not shown) [PF, pyriproxyfen, reference compound] | – | – | 2.429 ± 0.263 | – | – | – | 3.018 ± 0.450 | – | 2.315 ± 0.327
11 | CC(C)COC(=O)c1ccccc1 [iBB, iso-butyl benzoate] | – | 0.016 ± 0.214 | 2.683 ± 0.386 | – | – | – | 1.821 ± 0.487 | – | –
12 | COC(=O)c1ccccc1C [M2MB, methyl 2-methylbenzoate] | 4.165 ± 0.536 | 1.144 ± 0.247 | 6.671 ± 0.766 | – | – | – | – | – | –
13 | CCCCOC(=O)c1ccccc1 [nBB, n-butyl benzoate] | – | 0.369 ± 0.206 | 2.264 ± 0.385 | – | – | – | – | 2.752 ± 0.593 | –
14 | CCCCCCOC(=O)c1ccccc1 [nHB, n-hexyl benzoate] | – | 0.033 ± 0.216 | 2.012 ± 0.843 | – | – | – | – | – | 1.679 ± 0.785
15 | CCCCCOC(=O)c1ccccc1 [nPeB, n-pentyl benzoate] | – | 0.184 ± 0.207 | 2.466 ± 0.354 | – | – | – | 1.884 ± 0.809 | – | –

From patent US20230371508A1, “COMPOSITIONS AND METHODS FOR KILLING INSECT AND NON-INSECT PESTS” (The United States of America, as represented by the …, priority 2018, published 2023)
